Measurements from paper PMC3631140.
No constants are given. Whether binding was seen depends on the method and setting. In cells and extracts the contact can be indirect. For some assays here: Binding calls can cover weak binding; strength is not graded here.

T1: Vav1 (human (endogenous in Jurkat)) (UniProt P15498)
T1 sequence: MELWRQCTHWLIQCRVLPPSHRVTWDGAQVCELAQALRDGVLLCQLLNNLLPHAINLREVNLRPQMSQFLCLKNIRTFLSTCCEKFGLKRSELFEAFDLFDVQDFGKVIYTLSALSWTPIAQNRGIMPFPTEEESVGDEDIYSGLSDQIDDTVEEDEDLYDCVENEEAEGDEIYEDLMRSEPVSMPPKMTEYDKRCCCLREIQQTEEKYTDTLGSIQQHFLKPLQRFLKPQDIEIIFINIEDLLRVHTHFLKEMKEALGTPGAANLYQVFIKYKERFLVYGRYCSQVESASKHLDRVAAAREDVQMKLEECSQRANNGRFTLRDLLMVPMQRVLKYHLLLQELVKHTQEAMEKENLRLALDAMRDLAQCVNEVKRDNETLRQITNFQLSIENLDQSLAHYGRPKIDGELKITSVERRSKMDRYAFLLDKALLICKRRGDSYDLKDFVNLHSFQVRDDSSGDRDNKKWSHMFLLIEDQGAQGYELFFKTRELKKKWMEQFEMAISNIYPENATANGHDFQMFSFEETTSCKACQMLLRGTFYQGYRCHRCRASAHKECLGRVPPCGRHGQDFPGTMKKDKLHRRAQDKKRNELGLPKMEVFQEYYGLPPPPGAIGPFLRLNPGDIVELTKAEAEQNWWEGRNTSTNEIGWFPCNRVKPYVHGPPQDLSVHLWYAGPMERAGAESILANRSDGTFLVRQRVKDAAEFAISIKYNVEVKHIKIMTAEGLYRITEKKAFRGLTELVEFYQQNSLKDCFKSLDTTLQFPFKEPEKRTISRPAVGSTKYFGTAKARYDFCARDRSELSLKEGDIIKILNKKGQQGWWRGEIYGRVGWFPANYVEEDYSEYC


Tests used:
[1] = target: T1, Vav1 (human (endogenous in Jurkat)); assay: condition: only after CXCL12 stimulation (200 ng/ml); co-IP; endogenous proteins, lysates of control Jurkat C21 cells after CXCL12 (200 ng/ml) stimulation; IP with anti-Vav1 or anti-talin, immunoblotting
[2] = target: T1, Vav1 (human (endogenous in Jurkat)); assay: co-IP; endogenous proteins, lysates of control Jurkat C21 cells, unstimulated or stimulated with CXCL12 (200 ng/ml), pretreated with DMSO or piceatannol (25 µM); IP with anti-Vav1, anti-talin, anti-integrin β1 or anti-pVav1, immunoblotting
[3] = target: talin (human (endogenous in Jurkat)); assay: condition: only after CXCL12 stimulation (200 ng/ml); co-IP; endogenous proteins, lysates of control Jurkat C21 cells after CXCL12 (200 ng/ml) stimulation; IP with anti-Vav1 or anti-talin, immunoblotting
[4] = target: talin (human (endogenous in Jurkat)); assay: co-IP; endogenous proteins, lysates of control Jurkat C21 cells, unstimulated or stimulated with CXCL12 (200 ng/ml), pretreated with DMSO or piceatannol (25 µM); IP with anti-Vav1, anti-talin, anti-integrin β1 or anti-pVav1, immunoblotting

| Molecule | binding [1] | binding [2] | binding [3] | binding [4] |
| --- | --- | --- | --- | --- |
| talin (human (endogenous in Jurkat)) | no binding | binds | – | – |
| Vav1 (protein, UniProt P15498 1-845) MELWRQCTHWLIQCRVLPPSHRVTWDGAQVCELAQALRDGVLLCQLLNNLLPHAINLREVNLRPQMSQFLCLKNIRTFLSTCCEKFGLKRSELFEAFDLFDVQDFGKVIYTLSALSWTPIAQNRGIMPFPTEEESVGDEDIYSGLSDQIDDTVEEDEDLYDCVENEEAEGDEIYEDLMRSEPVSMPPKMTEYDKRCCCLREIQQTEEKYTDTLGSIQQHFLKPLQRFLKPQDIEIIFINIEDLLRVHTHFLKEMKEALGTPGAANLYQVFIKYKERFLVYGRYCSQVESASKHLDRVAAAREDVQMKLEECSQRANNGRFTLRDLLMVPMQRVLKYHLLLQELVKHTQEAMEKENLRLALDAMRDLAQCVNEVKRDNETLRQITNFQLSIENLDQSLAHYGRPKIDGELKITSVERRSKMDRYAFLLDKALLICKRRGDSYDLKDFVNLHSFQVRDDSSGDRDNKKWSHMFLLIEDQGAQGYELFFKTRELKKKWMEQFEMAISNIYPENATANGHDFQMFSFEETTSCKACQMLLRGTFYQGYRCHRCRASAHKECLGRVPPCGRHGQDFPGTMKKDKLHRRAQDKKRNELGLPKMEVFQEYYGLPPPPGAIGPFLRLNPGDIVELTKAEAEQNWWEGRNTSTNEIGWFPCNRVKPYVHGPPQDLSVHLWYAGPMERAGAESILANRSDGTFLVRQRVKDAAEFAISIKYNVEVKHIKIMTAEGLYRITEKKAFRGLTELVEFYQQNSLKDCFKSLDTTLQFPFKEPEKRTISRPAVGSTKYFGTAKARYDFCARDRSELSLKEGDIIKILNKKGQQGWWRGEIYGRVGWFPANYVEEDYSEYC | – | – | no binding | binds |
| GM-CSF/IL-3/IL-5 receptor common beta-chain-associated protein (CBAP) (protein, UniProt Q8N9M5 1-508) MASAVWGSAPWWGPPPPAPARPLTDIDFCSGAQLQELTQLIQELGVQESWSDGPKPGADLLRAKDFVFSLLGLVHRRDPRFPPQAELLLLRGGIREGSLDLGHAPLGPYARGPHYDAGFTLLVPMFSLDGTELQLDLESCYAQVCLPEMVCGTPIREMWQDCLGPPVPGARDSIHRTESEESSKDWQSSVDQPHSYVTEHEAPVSLEKSPSDVSASESPQHDVVDLGSTAPLKTMSSDVTKAAVESPVPKPSEAREAWPTLCSAQVAAWFFATLAAVAESLIPVPGAPRLVHAARHAGFTTVLLATPEPPRRLLLFDLIPVVSVAGWPEGARSHSWAGPLASESASFYLVPGGGTERPCASAWQLCFARQELALKARIPAPLLQAHAAAQALLRPLVAGTRAAAPYLLRTLLYWACERLPALYLARPENAGACCLGLLDELGRVLEAGTLPHYFLNGRQLRTGDDSAALLGELARLRGDPARALRAAVEEAKVARKGGGLAGVGGGAH | – | – | – | binds |
